Measurements reported in the supplement of paper PMC6411743.
± gives the standard deviation of the averaged measurements. The entries are a selection whose mix differs from that of the whole data set. Most entries show no effect beyond the scatter of the controls.

Sequences of proteins named here, by UniProt entry; tags and fusion partners are left off. A change or cut given only in a name is not applied to a line headed by its entry.
UniProt Q9BW91: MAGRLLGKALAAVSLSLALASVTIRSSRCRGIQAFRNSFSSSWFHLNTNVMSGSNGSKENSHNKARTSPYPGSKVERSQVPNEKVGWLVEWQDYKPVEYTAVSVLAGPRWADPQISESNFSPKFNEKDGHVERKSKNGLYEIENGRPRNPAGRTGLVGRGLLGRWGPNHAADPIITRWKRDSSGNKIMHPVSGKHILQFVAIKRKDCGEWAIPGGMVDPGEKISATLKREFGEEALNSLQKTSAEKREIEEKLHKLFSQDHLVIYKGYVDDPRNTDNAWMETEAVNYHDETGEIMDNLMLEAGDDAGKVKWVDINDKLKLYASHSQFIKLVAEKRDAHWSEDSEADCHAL
UniProt Q9BUE0: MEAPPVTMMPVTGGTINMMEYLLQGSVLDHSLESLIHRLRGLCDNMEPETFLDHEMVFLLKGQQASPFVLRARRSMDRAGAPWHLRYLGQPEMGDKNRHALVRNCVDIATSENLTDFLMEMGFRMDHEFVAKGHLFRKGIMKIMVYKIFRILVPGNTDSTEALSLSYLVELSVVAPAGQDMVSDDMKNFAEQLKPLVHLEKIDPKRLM
UniProt Q9BRA2: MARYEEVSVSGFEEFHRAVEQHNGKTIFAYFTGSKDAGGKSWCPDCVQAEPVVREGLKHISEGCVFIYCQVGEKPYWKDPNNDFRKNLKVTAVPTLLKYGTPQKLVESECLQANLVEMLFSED
UniProt Q9BTL3: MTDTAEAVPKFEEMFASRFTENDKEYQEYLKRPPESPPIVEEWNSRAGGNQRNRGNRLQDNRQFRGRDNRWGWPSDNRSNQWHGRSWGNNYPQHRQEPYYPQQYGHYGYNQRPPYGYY
UniProt Q9BU64: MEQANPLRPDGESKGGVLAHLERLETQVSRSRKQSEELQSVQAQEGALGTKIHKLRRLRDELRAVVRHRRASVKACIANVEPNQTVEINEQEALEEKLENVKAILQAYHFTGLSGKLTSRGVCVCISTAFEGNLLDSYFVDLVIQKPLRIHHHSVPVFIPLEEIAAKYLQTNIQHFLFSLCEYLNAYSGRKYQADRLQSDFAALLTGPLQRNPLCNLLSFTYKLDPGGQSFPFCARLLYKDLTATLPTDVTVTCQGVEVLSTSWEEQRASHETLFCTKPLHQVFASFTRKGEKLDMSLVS
UniProt Q9BQP7: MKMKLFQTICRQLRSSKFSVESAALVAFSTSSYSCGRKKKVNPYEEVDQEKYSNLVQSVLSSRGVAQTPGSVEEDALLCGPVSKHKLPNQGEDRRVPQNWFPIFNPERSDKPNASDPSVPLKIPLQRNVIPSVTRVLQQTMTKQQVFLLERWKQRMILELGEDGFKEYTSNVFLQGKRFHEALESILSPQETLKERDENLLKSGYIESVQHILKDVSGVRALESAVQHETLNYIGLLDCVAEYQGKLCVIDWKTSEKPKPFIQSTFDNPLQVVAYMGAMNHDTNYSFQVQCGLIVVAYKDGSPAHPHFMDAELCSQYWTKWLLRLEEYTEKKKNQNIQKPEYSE
UniProt Q9BRG1: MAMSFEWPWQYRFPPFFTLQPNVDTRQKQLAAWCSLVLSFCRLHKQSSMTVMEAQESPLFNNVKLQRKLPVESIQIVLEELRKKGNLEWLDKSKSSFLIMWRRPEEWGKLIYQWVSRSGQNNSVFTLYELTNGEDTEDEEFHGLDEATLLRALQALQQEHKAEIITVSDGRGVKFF
UniProt Q9BRT9, whole entry: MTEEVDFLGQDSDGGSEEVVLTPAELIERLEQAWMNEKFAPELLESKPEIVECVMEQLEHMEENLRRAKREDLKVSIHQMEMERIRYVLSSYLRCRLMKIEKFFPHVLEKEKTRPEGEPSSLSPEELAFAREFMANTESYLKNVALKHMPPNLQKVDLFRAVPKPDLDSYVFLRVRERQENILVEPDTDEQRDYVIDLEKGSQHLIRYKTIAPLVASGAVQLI
UniProt Q9BXB4: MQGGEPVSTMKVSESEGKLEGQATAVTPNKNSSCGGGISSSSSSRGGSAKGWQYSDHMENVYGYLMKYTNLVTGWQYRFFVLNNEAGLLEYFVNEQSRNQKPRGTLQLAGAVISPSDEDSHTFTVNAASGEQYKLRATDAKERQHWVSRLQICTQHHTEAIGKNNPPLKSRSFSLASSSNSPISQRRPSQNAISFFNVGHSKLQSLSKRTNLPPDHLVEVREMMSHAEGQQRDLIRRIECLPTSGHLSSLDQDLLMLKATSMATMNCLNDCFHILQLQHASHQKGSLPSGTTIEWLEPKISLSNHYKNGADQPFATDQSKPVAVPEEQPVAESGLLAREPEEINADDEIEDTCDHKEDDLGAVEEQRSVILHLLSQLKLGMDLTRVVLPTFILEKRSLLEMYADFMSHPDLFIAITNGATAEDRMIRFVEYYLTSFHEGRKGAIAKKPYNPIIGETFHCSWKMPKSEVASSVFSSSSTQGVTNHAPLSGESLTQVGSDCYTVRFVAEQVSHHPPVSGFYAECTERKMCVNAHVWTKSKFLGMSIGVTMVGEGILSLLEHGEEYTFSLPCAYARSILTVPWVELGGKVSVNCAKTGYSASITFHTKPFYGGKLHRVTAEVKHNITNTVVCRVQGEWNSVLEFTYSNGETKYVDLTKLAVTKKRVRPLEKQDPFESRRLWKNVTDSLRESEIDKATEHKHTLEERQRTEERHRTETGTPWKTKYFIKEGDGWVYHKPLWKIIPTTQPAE
UniProt Q9BUQ8: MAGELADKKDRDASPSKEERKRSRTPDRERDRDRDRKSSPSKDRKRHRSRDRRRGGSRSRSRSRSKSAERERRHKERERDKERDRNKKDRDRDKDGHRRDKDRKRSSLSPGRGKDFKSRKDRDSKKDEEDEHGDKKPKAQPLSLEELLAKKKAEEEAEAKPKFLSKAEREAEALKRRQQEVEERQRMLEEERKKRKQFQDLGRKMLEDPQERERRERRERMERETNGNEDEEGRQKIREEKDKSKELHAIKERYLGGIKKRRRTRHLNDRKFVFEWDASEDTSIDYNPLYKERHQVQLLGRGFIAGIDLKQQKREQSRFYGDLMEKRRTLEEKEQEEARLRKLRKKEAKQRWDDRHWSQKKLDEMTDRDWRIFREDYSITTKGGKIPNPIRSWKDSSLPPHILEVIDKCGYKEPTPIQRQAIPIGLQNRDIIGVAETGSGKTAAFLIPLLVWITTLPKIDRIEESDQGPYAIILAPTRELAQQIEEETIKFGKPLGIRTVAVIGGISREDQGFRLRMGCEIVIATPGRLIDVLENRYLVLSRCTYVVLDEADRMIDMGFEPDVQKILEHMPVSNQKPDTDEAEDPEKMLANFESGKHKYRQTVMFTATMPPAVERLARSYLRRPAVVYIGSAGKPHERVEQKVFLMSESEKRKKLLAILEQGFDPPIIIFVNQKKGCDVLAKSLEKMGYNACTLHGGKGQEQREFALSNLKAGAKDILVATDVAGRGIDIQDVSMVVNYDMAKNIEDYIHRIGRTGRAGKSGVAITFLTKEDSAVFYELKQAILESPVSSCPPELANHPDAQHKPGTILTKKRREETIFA
UniProt Q99747: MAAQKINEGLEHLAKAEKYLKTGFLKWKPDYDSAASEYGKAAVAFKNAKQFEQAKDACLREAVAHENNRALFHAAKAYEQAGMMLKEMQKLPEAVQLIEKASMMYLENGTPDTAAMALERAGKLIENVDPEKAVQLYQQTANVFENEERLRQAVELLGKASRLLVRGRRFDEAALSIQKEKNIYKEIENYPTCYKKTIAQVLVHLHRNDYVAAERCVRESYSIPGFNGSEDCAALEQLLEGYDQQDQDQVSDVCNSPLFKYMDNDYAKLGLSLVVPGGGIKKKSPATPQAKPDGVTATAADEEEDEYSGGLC
UniProt Q9BQ95: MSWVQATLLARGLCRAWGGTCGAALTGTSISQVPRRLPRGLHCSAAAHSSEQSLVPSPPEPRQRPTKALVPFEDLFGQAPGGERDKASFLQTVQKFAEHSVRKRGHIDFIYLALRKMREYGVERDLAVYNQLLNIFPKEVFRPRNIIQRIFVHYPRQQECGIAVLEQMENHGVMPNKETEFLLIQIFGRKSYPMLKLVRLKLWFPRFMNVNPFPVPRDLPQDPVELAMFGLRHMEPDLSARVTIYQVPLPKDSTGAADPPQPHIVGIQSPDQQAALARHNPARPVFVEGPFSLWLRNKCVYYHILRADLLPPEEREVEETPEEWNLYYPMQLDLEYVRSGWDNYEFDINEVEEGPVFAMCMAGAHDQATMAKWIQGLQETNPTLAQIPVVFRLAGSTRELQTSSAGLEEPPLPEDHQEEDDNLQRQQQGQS
UniProt Q9BY12: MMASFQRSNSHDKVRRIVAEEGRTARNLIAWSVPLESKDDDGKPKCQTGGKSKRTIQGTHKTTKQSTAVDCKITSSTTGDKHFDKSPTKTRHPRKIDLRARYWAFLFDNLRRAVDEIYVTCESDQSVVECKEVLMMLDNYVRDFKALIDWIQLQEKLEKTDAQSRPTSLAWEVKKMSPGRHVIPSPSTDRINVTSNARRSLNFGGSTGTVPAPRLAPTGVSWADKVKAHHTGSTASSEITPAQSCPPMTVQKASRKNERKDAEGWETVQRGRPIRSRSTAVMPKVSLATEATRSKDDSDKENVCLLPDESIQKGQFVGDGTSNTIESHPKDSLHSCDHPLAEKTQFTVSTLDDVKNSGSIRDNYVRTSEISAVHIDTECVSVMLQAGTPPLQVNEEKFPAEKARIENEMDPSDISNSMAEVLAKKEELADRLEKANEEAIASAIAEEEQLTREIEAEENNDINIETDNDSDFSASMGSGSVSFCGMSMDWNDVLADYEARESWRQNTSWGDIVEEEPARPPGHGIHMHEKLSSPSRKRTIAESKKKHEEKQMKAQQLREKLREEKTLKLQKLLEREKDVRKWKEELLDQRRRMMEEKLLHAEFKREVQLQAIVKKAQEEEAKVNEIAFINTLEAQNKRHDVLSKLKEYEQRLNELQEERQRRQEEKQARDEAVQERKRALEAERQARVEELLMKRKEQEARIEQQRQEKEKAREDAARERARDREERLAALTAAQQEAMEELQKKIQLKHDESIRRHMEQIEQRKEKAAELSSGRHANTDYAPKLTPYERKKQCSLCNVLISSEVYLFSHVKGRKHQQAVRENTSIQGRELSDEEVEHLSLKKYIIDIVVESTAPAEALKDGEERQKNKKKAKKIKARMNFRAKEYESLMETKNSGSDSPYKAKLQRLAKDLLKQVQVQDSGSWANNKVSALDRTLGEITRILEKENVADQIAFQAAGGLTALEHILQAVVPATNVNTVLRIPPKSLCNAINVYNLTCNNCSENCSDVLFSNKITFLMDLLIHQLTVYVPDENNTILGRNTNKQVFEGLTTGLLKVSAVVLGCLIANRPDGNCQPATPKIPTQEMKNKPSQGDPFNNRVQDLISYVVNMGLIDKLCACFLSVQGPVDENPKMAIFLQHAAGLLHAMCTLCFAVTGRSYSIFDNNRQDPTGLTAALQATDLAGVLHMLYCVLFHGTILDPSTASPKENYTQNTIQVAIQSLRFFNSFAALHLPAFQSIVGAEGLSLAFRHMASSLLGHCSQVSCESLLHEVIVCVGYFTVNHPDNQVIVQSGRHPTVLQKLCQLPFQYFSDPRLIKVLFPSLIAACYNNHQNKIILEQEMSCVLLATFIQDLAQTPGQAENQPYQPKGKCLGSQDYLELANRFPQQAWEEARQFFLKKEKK
UniProt Q9BQI3, whole entry: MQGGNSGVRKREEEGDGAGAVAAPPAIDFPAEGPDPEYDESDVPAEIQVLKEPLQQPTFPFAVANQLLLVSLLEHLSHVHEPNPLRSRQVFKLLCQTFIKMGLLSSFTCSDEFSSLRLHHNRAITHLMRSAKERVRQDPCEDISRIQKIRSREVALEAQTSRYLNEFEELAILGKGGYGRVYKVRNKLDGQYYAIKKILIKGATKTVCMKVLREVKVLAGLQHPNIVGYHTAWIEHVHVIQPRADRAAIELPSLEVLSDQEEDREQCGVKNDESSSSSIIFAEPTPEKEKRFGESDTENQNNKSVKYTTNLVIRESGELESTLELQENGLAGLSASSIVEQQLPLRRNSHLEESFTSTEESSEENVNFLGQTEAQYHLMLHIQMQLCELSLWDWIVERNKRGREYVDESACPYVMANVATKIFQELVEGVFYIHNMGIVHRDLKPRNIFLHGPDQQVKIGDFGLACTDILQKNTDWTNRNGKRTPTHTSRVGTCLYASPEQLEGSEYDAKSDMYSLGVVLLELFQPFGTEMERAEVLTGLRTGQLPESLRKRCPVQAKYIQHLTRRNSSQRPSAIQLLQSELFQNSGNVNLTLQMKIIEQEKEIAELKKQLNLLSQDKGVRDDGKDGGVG
UniProt Q99871: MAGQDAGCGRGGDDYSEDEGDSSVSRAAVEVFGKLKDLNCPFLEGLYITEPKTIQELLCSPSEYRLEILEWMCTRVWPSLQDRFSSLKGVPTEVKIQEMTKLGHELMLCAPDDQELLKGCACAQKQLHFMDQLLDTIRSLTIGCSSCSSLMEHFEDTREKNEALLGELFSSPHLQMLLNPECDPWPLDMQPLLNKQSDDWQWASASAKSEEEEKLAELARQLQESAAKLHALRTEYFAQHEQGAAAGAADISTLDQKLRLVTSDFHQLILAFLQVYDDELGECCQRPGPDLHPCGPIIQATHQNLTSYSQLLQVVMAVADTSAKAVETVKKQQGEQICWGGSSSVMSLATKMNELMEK

Compound: Nc1ncnc2c1ncn2[C@@H]1O[C@H](COP(=O)(O)OP(=O)(O)NP(=O)(O)O)[C@@H](O)[C@H]1O [adenylyl imidodiphosphate]
Assay: NP40-soluble protein abundance relative to vehicle (solubility fold change) (ratio); higher = more soluble protein in presence of AMP-PNP
In short: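 Eight concentrations, 0.1 to 10 mM, were tested on Jurkat crude lysate for 10 min at room temperature and then 3 min at 37 °C, in three independent experiments. The lysate was solubilised with 0.8% NP40 and benzonase, ultracentrifuged, and the supernatant TMT-labelled for LC-MS/MS. Each value is the fold change against the detergent-processed vehicle in its own replicate, from vsn-normalised intensities.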

Target	NP40-soluble protein abundance (concentration: 0.1mM)	NP40-soluble protein abundance (concentration: 0.5mM)
UniProt Q96SU4 and related entries	1.02 ± 0.029	1 ± 0.028
UniProt Q96T21 and related entries	0.994 ± 0.04	0.98 ± 0.026
SPATA5L1 (UniProt Q9BVQ7)	1.022 ± 0.0079	1.03 ± 0.019
ADO (UniProt Q96SZ5)	0.978 ± 0.038	1.06 ± 0.059
LIMD2 (UniProt Q9BT23)	1.09 ± 0.056	1.14 ± 0.029
UniProt Q9BWS9 and related entries	0.985 ± 0.067	0.96 ± 0.094
ADAT1 (UniProt Q9BUB4)	0.9875 ± 0.0082	1.02 ± 0.019
GPATCH1 (UniProt Q9BRR8)	1.02 ± 0.058	1.04 ± 0.031
UniProt Q9BW91 and related entries	0.968 ± 0.035	0.989 ± 0.015
UniProt Q96RR4 and related entries	0.988 ± 0.019	0.989 ± 0.028
UniProt Q9BSJ2 and related entries	1.03 ± 0.027	1.02 ± 0.019
MED18 (UniProt Q9BUE0)	0.981 ± 0.057	0.973 ± 0.064
NOC4L (UniProt Q9BVI4)	1.02 ± 0.013	1.013 ± 0.01
PAFAH2 (UniProt Q99487)	1.05 ± 0.055	0.993 ± 0.033
UniProt Q99549 and related entries	0.966 ± 0.025	1.01 ± 0.024
KATNB1 (UniProt Q9BVA0)	1.02 ± 0.021	0.998 ± 0.017
UniProt Q9BQI0 and related entries	0.998 ± 0.036	1.02 ± 0.056
TXNDC17 (UniProt Q9BRA2)	0.992 ± 0.052	0.982 ± 0.021
UniProt Q9BTL3	1.01 ± 0.053	0.972 ± 0.022
UniProt Q9BRP8 and related entries	0.982 ± 0.034	1.04 ± 0.049
NUDCD1 (UniProt Q96RS6)	0.999 ± 0.012	0.963 ± 0.08
CENPO (UniProt Q9BU64)	1.01 ± 0.011	1.013 ± 0.0081
UniProt Q9BRT2 and related entries	1.1 ± 0.048	1.05 ± 0.034
THUMPD3 (UniProt Q9BV44)	0.953 ± 0.023	0.957 ± 0.015

Target	NP40-soluble protein abundance (concentration: 0.1mM)	NP40-soluble protein abundance (concentration: 0.5mM)
UniProt Q9BUA3	0.991 ± 0.019	0.981 ± 0.034
UniProt Q9BQP7	0.995 ± 0.014	1.03 ± 0.023
PNKP (UniProt Q96T60)	1.01 ± 0.035	1.01 ± 0.0046
UniProt Q9BRG1 and related entries	1.06 ± 0.011	1.05 ± 0.018
UniProt Q96TC7	0.976 ± 0.042	0.965 ± 0.036
PIGS (UniProt Q96S52)	0.973 ± 0.031	0.97 ± 0.062
MRPL13 (UniProt Q9BYD1)	1.02 ± 0.037	1 ± 0.065
GINS4 (UniProt Q9BRT9)	0.943 ± 0.065	0.921 ± 0.057
UniProt Q9BRJ7 and related entries	1.01 ± 0.046	0.995 ± 0.041
UniProt Q96RG2 and related entries	0.994 ± 0.011	0.98 ± 0.018
UniProt Q96RT1 and related entries	0.998 ± 0.04	0.983 ± 0.042
UniProt Q96S66 and related entries	0.953 ± 0.031	0.99 ± 0.019
RNF5 (UniProt Q99942)	1.04 ± 0.065	0.999 ± 0.024
UniProt Q9BUK6 and related entries	0.974 ± 0.048	0.996 ± 0.046
DNAJC2 (UniProt Q99543)	1.01 ± 0.031	0.97 ± 0.041
UniProt Q9BXI6 and related entries	0.976 ± 0.015	0.9707 ± 0.0038
UniProt Q96SN8 and related entries	1.03 ± 0.032	1.02 ± 0.043
UniProt Q9BV29 and related entries	0.9769 ± 0.0063	0.996 ± 0.018
SDF4 (UniProt Q9BRK5)	0.969 ± 0.016	0.968 ± 0.031
UniProt Q99728 and related entries	1.01 ± 0.046	0.993 ± 0.032
UniProt Q9BYV8	0.947 ± 0.024	0.9776 ± 0.0072
UniProt Q9BRP4 and related entries	0.985 ± 0.031	0.961 ± 0.032
UniProt Q9BTK6	0.97453 ± 3.5e-05	0.986 ± 0.013
UniProt Q96QU8 and related entries	1.05 ± 0.039	1.03 ± 0.032

Target	NP40-soluble protein abundance (concentration: 0.1mM)	NP40-soluble protein abundance (concentration: 0.5mM)
OSBPL11 (UniProt Q9BXB4)	0.98 ± 0.041	0.998 ± 0.027
SIKE1 (UniProt Q9BRV8)	1.019 ± 0.0026	1.02 ± 0.015
UniProt Q9BY77 and related entries	0.981 ± 0.03	0.99 ± 0.068
UniProt Q99490-2|F8VVT9 and related entries	0.997 ± 0.011	0.999 ± 0.024
CCNL2 (UniProt Q96S94)	0.99 ± 0.02	0.964 ± 0.03
CORO1B (UniProt Q9BR76)	1.01 ± 0.014	1.01 ± 0.047
BACH2 (UniProt Q9BYV9)	1.01 ± 0.022	1.02 ± 0.055
UniProt Q9BX67	0.994 ± 0.029	1.01 ± 0.039
UniProt Q9BRR9-2|Q9BRR9-4|Q9BRR9-5|R4GN15	0.979 ± 0.012	0.95 ± 0.022
DDX23 (UniProt Q9BUQ8)	1.05 ± 0.019	1.02 ± 0.038
TRMT61B (UniProt Q9BVS5)	0.995 ± 0.018	1.01 ± 0.04
UniProt Q9BVS4 and related entries	0.961 ± 0.024	0.9585 ± 0.009
PDCD2L (UniProt Q9BRP1)	0.986 ± 0.033	1.01 ± 0.032
NAPG (UniProt Q99747)	0.987 ± 0.029	1.01 ± 0.029
GRWD1 (UniProt Q9BQ67)	1.05 ± 0.045	1.01 ± 0.024
UniProt Q96T23 and related entries	0.982 ± 0.016	1.02 ± 0.033
UniProt Q99081 and related entries	0.992 ± 0.045	1.01 ± 0.011
UniProt Q99767-2|Q99767	0.992 ± 0.031	0.9901 ± 0.0021
UniProt Q9BU61 and related entries	1.02 ± 0.021	0.993 ± 0.043
ECSIT (UniProt Q9BQ95)	1.03 ± 0.047	1.03 ± 0.044
UniProt Q9BTE3 and related entries	1.01 ± 0.033	0.984 ± 0.031
SIN3A (UniProt Q96ST3)	1 ± 0.016	0.975 ± 0.036
QTRT1 (UniProt Q9BXR0)	1.04 ± 0.029	0.991 ± 0.041
VRK1 (UniProt Q99986)	1.03 ± 0.018	1.08 ± 0.053

Target	NP40-soluble protein abundance (concentration: 0.1mM)	NP40-soluble protein abundance (concentration: 0.5mM)
UniProt Q96RL7 and related entries	1.02 ± 0.044	0.987 ± 0.088
UniProt Q99719 and related entries	1.06 ± 0.067	1.08 ± 0.073
UniProt Q96RF0-2	1.013 ± 0.0017	1.02 ± 0.023
EFHD1 (UniProt Q9BUP0)	0.972 ± 0.058	0.987 ± 0.045
UniProt Q9BRX9	0.988 ± 0.011	0.9663 ± 0.0075
UniProt Q9BY12 and related entries	1.03 ± 0.045	1.01 ± 0.043
TMEM43 (UniProt Q9BTV4)	0.971 ± 0.032	0.934 ± 0.14
DDA1 (UniProt Q9BW61)	1.02 ± 0.039	1.03 ± 0.02
TMEM109 (UniProt Q9BVC6)	0.993 ± 0.033	1.03 ± 0.047
HEMGN (UniProt Q9BXL5)	0.983 ± 0.02	1.01 ± 0.044
UniProt Q9BPZ3 and related entries	0.986 ± 0.034	0.989 ± 0.038
UniProt Q9BPY3 and related entries	1.04 ± 0.058	1.002 ± 0.0066
TM9SF2 (UniProt Q99805)	0.97 ± 0.08	0.97 ± 0.091
RPAP1 (UniProt Q9BWH6)	1.03 ± 0.044	1.03 ± 0.032
ACBD6 (UniProt Q9BR61)	0.987 ± 0.033	0.991 ± 0.052
UniProt Q9BSD7	1.05 ± 0.069	1.14 ± 0.05
SH3GL1 (UniProt Q99961)	0.973 ± 0.034	1 ± 0.037
UniProt Q9BUR4	1.01 ± 0.012	1 ± 0.024
MRPL32 (UniProt Q9BYC8)	0.994 ± 0.01	1.01 ± 0.045
CCT7 (UniProt Q99832)	0.999 ± 0.037	0.998 ± 0.03
UniProt Q99571 and related entries	0.998 ± 0.012	0.981 ± 0.031
TIPIN (UniProt Q9BVW5)	0.946 ± 0.048	0.952 ± 0.032
DIDO1 (UniProt Q9BTC0)	1.03 ± 0.037	1.03 ± 0.026
KLF16 (UniProt Q9BXK1)	1.01 ± 0.033	1.02 ± 0.031

Target	NP40-soluble protein abundance (concentration: 0.1mM)	NP40-soluble protein abundance (concentration: 0.5mM)
UniProt Q9BXW7 and related entries	1.05 ± 0.021	0.989 ± 0.073
UniProt Q9BQI3 and related entries	1.012 ± 0.003	0.992 ± 0.021
UniProt Q99871 and related entries	0.948 ± 0.015	0.9717 ± 0.0088
UniProt Q96TA1 and related entries	0.981 ± 0.029	0.95 ± 0.024
UniProt Q99640 and related entries	0.983 ± 0.012	0.974 ± 0.029
STRBP (UniProt Q96SI9)	1.01 ± 0.033	1.02 ± 0.047
RBCK1 (UniProt Q9BYM8)	0.9751 ± 0.0069	0.965 ± 0.017
GNB1L (UniProt Q9BYB4)	0.985 ± 0.013	0.974 ± 0.029
UniProt Q9BRT3	0.931 ± 0.032	0.898 ± 0.038
UniProt Q9BPX7 and related entries	0.9945 ± 0.0032	1.04 ± 0.043
TBCB (UniProt Q99426)	1.01 ± 0.021	1.04 ± 0.063
NCAPG (UniProt Q9BPX3)	0.981 ± 0.018	0.974 ± 0.04
AGPAT1 (UniProt Q99943)	1 ± 0.059	0.976 ± 0.015
LYSMD1 (UniProt Q96S90)	0.981 ± 0.016	0.99 ± 0.046
KIFC1 (UniProt Q9BW19)	0.991 ± 0.022	1.03 ± 0.058
UniProt Q9BU23 and related entries	0.9764 ± 0.0013	0.995 ± 0.039
UniProt Q9BVC4	1.07 ± 0.052	0.972 ± 0.062
UniProt Q96TA2 and related entries	1.01 ± 0.022	0.985 ± 0.0091
UniProt Q9BYG3	1.02 ± 0.05	1.03 ± 0.016
UniProt Q9BXW9 and related entries	1 ± 0.019	1 ± 0.034
UniProt Q96RQ3 and related entries	1 ± 0.034	0.967 ± 0.038
SMC6 (UniProt Q96SB8)	0.997 ± 0.026	1.06 ± 0.075
DPH2 (UniProt Q9BQC3)	1.03 ± 0.019	1.01 ± 0.036
UniProt Q9BZ23 and related entries	0.99 ± 0.015	0.986 ± 0.022

A different layout for some results above.
UniProt Q99640 and related entries
  NP40-soluble protein abundance (concentration: 0.1mM): 0.983 ± 0.012
  NP40-soluble protein abundance (concentration: 0.5mM): 0.974 ± 0.029
RBCK1 (UniProt Q9BYM8)
  NP40-soluble protein abundance (concentration: 0.1mM): 0.9751 ± 0.0069
  NP40-soluble protein abundance (concentration: 0.5mM): 0.965 ± 0.017
UniProt Q9BYG3
  NP40-soluble protein abundance (concentration: 0.1mM): 1.02 ± 0.05
  NP40-soluble protein abundance (concentration: 0.5mM): 1.03 ± 0.016
UniProt Q96RQ3 and related entries
  NP40-soluble protein abundance (concentration: 0.1mM): 1 ± 0.034
  NP40-soluble protein abundance (concentration: 0.5mM): 0.967 ± 0.038
